Assay results as given in patent publication US9012489B2, “Phenyl-3-aza-bicyclo[3.1.0]hex-3-yl-methanones and the use thereof as medicament” (Boehringer Ingelheim International GmbH, priority 2011, dated 2015).

The chains behind the UniProt entries cited, without tags or fusion partners.
UniProt P48067, whole entry: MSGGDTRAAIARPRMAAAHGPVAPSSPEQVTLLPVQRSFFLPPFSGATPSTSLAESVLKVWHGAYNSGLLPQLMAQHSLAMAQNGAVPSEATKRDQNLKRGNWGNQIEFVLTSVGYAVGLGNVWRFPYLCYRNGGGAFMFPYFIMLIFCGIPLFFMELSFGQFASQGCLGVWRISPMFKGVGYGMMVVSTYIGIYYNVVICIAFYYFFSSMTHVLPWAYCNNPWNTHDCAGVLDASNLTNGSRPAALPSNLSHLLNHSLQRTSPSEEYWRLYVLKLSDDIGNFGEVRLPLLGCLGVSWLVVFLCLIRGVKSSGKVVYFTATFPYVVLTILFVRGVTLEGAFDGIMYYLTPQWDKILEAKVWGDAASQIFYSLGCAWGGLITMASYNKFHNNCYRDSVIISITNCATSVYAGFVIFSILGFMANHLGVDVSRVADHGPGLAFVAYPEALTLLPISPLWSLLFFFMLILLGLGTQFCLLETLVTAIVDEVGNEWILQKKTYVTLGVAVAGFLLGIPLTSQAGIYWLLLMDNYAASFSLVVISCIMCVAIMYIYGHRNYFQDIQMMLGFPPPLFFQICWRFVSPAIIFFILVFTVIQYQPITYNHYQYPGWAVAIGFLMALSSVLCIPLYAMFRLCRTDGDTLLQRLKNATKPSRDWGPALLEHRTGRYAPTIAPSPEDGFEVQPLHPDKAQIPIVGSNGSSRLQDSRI

Biological target: GlyT1 transporter (Homo sapiens, UniProt P48067)
Experiment: GlyT1 assay: 3H-glycine uptake into SK-N-MC cells (Cytostar-T format)
Conditions: glycine uptake in human SK-N-MC cells endogenously expressing GlyT1; 500 nM glycine, 1% DMSO, signal recorded over 60 min
Text: Cells expressing either endogenously the GlyT1 transporter like JAR cells (human placental choriocarcinoma cells; e.g. WO 2008/002583) or SK-N-MC cells (human neuroblastoma cells; Depoortere et al., 2005. Neuropsychopharmacology 30:1963-1985) or primary neurons or cells which have been transfected with a plasmid encoding the cDNA of a functional GlyT1 transporter and stably or transiently express GlyT1 (e.g. WO 2006/08200) can be used to monitor glycine uptake in cells. Different protocols for determination of the glycine uptake into the cells described above can be applied in order to identify and rank compounds which interfere with glycine uptake in the selected cell.
Compounds outlined in the examples below were characterized using human SK-N-MC cells (ATCC number HTB-10) endogenously expressing the GlyT1 transporter which is responsible for the uptake of glycine into these cells and the uptake of glycine into these cells is monitored using the Cytostar-T assay format (GE Healthcare, RPNQ0162) which is based on the radioactive glycine taken up by the cells and brought into proximity with the scintillant contained within the base of the plate. […] The uptake is recorded as kinetic and the slope of the measured counts over time is used to calculate IC50. […]
Maximal glycine uptake in every experiment is determined by incubation of SK-N-MC cells with substrate but without inhibitor. […]

COC1(c2nc(C34CC3CN(C(=O)c3cc(S(C)(=O)=O)ccc3O[C@@H](C)C(F)(F)F)C4)no2)CC1 (single isomer, unassigned)
IC50: 700 nM

The structures given here were assigned with low confidence; some may be wrong.
